According to patent US10730851B2, “Polymorph of triaryldimethylpiperazine dihydrochloride and preparation method and application thereof” (priority 2016, dated 2020):
Counter-ions that a name gives are not always drawn. Like-named read-outs stand apart in the source and are kept apart here. Further values from the same series stand in other lists.

How the values were obtained:
[1] = Dynamic solubility test in water, SGF, FeSSIF, FaSSIF; assay type: physicochemical
Method: The dynamic solubility of a free base, polymorph forms B, P, F, J and O in water or a biological medium such as Stimulated Gastric Fluid (SGF), Fed State Simulated Intestinal Fluid (FeSSIF) or Fasted State Simulated Intestinal Fluid (FaSSIF) is determined.
0.2 g sodium chloride and 0.1 g Triton X-100 is weighed and placed into a 100 mL volumetric flask. Purified water is added to dissolve. A stir is performed until the solid is completely dissolved. About 135 μL concentrated hydrochloric acid solution (37%, […]) is added, then the pH is adjusted to 1.8 with […] hydrochloric acid or 1 mmoL/L sodium hydroxide. Finally, the volume is fixed with purified water to obtain Stimulated Gastric Fluid (SGF) for later use.
Each of 0.41 mL glacial acetic acid, 0.20 g sodium hydroxide and 0.59 g sodium chloride is weighed and placed to a 50 mL volumetric flask. About 48 mL purified water is added to dissolve, the pH is adjusted to 5.0 with 1 mmoL/L hydrochloric acid or 1 mmoL/L sodium hydroxide, and the volume is fixed with purified water. Then 0.56 g of Simulated Intestinal Fluid powder (SIF powder for short, which is composed of […] with a molar ratio of 4:1) is added, stirred and ultrasonically dissolved to obtain Fed State Simulated Intestinal Fluid (FeSSIF) for later use.
Each of 0.17 g of anhydrous sodium dihydrogen phosphate (NaH2PO4), 0.021 g of sodium hydroxide and 0.31 g of sodium chloride is weighed and placed into a 50 mL volumetric flask. About 48 mL of purified water is added to dissolve, the pH is adjusted to 6.5 with 1 mmoL/L hydrochloric acid or 1 mmoL/L sodium hydroxide, and the volume is fixed with purified water. 0.11 g of SIF powder is added, stirred and ultrasonically dissolved to obtain Fasted State Simulated Intestinal Fluid (FaSSIF) for later use.
Each 30 mg of the free base, and polymorph forms B, P, F, J and O are weighed. 3 mL of purified water, Stimulated Gastric Fluid (SGF), Fed State Simulated Intestinal Fluid (FeSSIF) or Fasted State Simulated Intestinal Fluid (FaSSIF)) is added and oscillated at room temperature. 0.6 mL of suspension is taken each time at a set time point, filtered and separated with a 0.45 μm nylon filter membrane, then XRPD characterization is performed on the solid sample, and the concentration in the clear solution is measured by HPLC.

Rough solubility test = assay type: physicochemical
Method: 2.0 mg of a free base and 2.0 mg of polymorph forms B, F, P, J and O are respectively taken and placed in 3.0 mL glass bottles. Then the solvent methanol is added step by step, and ultrasound is performed to observe whether the sample is completely dissolved. If the sample is still not completely dissolved after 2.0 mL of solvent is added, the test is stopped to measure the rough solubility of the free base, polymorph forms B, F, P, J and O in methanol respectively.
Using the same method, the rough solubility of the free base, polymorph forms B, P, F, J and O in other organic solvents or water listed in Table 6 are determined respectively.

CC1CCN(C(=O)c2ccc([C@H](c3cccc(O)c3)N3C[C@@H](C)N(Cc4cccc(F)c4)C[C@@H]3C)cc2)CC1 [Polymorph form O, (4-((R)-((2S,5R)-4-(3-fluorobenzyl)-(2,5-dimethylpiperazine-1-yl)(3-hydroxyphenyl)methyl)phenyl)(4-methylpiperidine-1-yl)methanone dihydrochloride]
Crystal form of insoluble solid sample [1]: Monohydro-
Crystal form of insoluble solid sample ([1]; pH 1.8): invariability
Crystal form of insoluble solid sample ([1]; pH 5): invariability
Crystal form of insoluble solid sample ([1]; pH 6.5): invariability

CC1CCN(C(=O)c2ccc([C@H](c3cccc(O)c3)N3C[C@@H](C)N(Cc4cccc(F)c4)C[C@@H]3C)cc2)CC1 [free base]
Rough solubility (Rough solubility test; 1,4-dioxane): 12000 to 15000 µg/mL
Rough solubility (Rough solubility test; 2-MeTHF (second line for this solvent)): 4700 to 5100 µg/mL
Rough solubility (Rough solubility test; 2-methyltetrahydrofuran): 4700 to 5100 µg/mL
Rough solubility (Rough solubility test; Acetone): 29000 to 30800 µg/mL
Rough solubility (Rough solubility test; Acetonitrile): 42900 to 43100 µg/mL
Rough solubility (Rough solubility test; Chloroform): 20700 to 31000 µg/mL
Rough solubility (Rough solubility test; Ethanol): 5200 to 5600 µg/mL
Rough solubility (Rough solubility test; Ethyl acetate): 7700 to 9000 µg/mL
Rough solubility (Rough solubility test; Isopropyl acetate): 3300 to 3500 µg/mL
Rough solubility (Rough solubility test; Isopropyl alcohol): 4600 to 4900 µg/mL
Rough solubility (Rough solubility test; Methanol): 22000 to 23000 µg/mL
Rough solubility (Rough solubility test; Methyl isobutyl ketone): 3500 to 3800 µg/mL
Rough solubility (Rough solubility test; Methyl tert-butyl ether): 2400 to 2600 µg/mL
Rough solubility (Rough solubility test; N,N-dimethylacetamide): 11500 to 15300 µg/mL
Rough solubility (Rough solubility test; N-heptane): <1500 µg/mL
Rough solubility (Rough solubility test; N-methylpyrrolidone): 7400 to 8700 µg/mL
Rough solubility (Rough solubility test; Tetrahydrofuran): 17000 to 22600 µg/mL
Rough solubility (Rough solubility test; Toluene): 1300 to 1400 µg/mL
Rough solubility (Rough solubility test; Water): <1100 µg/mL
Rough solubility (Rough solubility test; dichloromethane): 10000 to 12500 µg/mL
Rough solubility (Rough solubility test; dimethyl sulfoxide): 9300 to 11200 µg/mL
Crystal form of insoluble solid sample ([1]; Water, Time 1, XRPD): invariability
Solubility ([1]; Water, Time 1, room temperature): <LOQ

CC1CCN(C(=O)c2ccc([C@H](c3cccc(O)c3)N3C[C@@H](C)N(Cc4cccc(F)c4)C[C@@H]3C)cc2)CC1 [Polymorph form J, (4-((R)-((2S,5R)-4-(3-fluorobenzyl)-(2,5-dimethylpiperazine-1-yl)(3-hydroxyphenyl)methyl)phenyl)(4-methylpiperidine-1-yl)methanone dihydrochloride]
Crystal form of insoluble solid sample [1]: Monohydro-
Crystal form of insoluble solid sample ([1]; pH 1.8): amorphism
Crystal form of insoluble solid sample ([1]; pH 5): amorphism
Crystal form of insoluble solid sample ([1]; pH 6.5): amorphism

CC1CCN(C(=O)c2ccc([C@H](c3cccc(O)c3)N3C[C@@H](C)N(Cc4cccc(F)c4)C[C@@H]3C)cc2)CC1 [Polymorph form B, (4-((R)-((2S,5R)-4-(3-fluorobenzyl)-(2,5-dimethylpiperazine-1-yl)(3-hydroxyphenyl)methyl)phenyl)(4-methylpiperidine-1-yl)methanone dihydrochloride]
Crystal form of insoluble solid sample ([1]; pH 1.8): amorphism
Crystal form of insoluble solid sample ([1]; pH 5): amorphism
Crystal form of insoluble solid sample ([1]; pH 6.5): amorphism
